Results published in PMC8041845.
No constants are given. Whether binding was seen depends on the method and setting. Sequences can lack the tags named with a protein.

Chains of the proteins cited; added tags and fusions are not shown.
UniProt Q67Y69: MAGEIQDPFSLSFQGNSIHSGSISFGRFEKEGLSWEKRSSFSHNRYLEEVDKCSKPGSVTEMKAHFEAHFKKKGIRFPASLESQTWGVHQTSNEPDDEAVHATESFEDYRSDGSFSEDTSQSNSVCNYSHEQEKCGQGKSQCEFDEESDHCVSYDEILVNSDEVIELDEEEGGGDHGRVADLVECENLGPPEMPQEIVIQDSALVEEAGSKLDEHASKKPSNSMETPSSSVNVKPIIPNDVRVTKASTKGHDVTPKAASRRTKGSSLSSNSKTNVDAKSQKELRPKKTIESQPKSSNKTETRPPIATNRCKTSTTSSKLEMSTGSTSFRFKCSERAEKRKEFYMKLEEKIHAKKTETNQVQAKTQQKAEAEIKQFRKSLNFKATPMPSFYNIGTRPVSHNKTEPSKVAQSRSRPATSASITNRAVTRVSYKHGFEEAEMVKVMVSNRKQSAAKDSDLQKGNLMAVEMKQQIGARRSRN

Target: WAVE-DAMPENED2-LIKE7 (WDL7), pGBKT7 fusion (Arabidopsis thaliana) (UniProt Q67Y69)
Experiment: two-hybrid; pGADT7 and pGBKT7 fusions co-transformed into yeast strain AH109; growth on -Trp/-Leu/-His/-Ade medium, 28 °C, 2-3 days

binding: no binding
B1: MBR2, pGADT7 fusion (enzyme, UniProt O49500 1-666)
chain: MQGPRSTGDSSTGINYADGEPICSTNSETTSNNILNPVDVQFPNNTTGSGRPTYASSSSHVVQNHNWWSFGESSSRLGPSDHLNSNGSKTDRQLLSDGYGFEEGQSGMLLPGESFLRGSSSSHMLSHVNLGKDMDIGSGLQTSGVVIRHNNCETSLGSSSQTAEERSSGPGSSLGGLGSSCKRKALEGAPSHSFPGESHGCFFQTENGAWNEGLAQYDASSSLSLSMPSQNSPNVNNQSGLPEPRFGLGGGRAVTASAFPSTRSTETISRPGRRLNPGQPPESVAFSFTQSGSSVRQQQQLPATSPFVDPLDARAIPVTGSSSSGDGQPSMIHLPALTRNIHQFAWSASSSSRANSMPEEGLSPWDAPRINSEQPVFTTPANETRNPVQDQFCWSFTRGNPSTSGDSPFVPRAGSSSGIHGLQPNPTWVTPHNQSRISEVAPWSLFPSIESESATHGASLPLLPTGPSVSSNEAAAPSGSSSRSHRSRQRRSGLLLERQNDHLHLRHLGRSLAADNDGRNRLISEIRQVLSAMRRGENLRFEDYMVFDPLIYQGMAEMHDRHRDMRLDVDNMSYEELLALGERIGDVSTGLSEEVILKVMKQHKHTSSAAGSHQDMEPCCVCQEEYAEGDDLGTLGCGHEFHTACVKQWLMLKNLCPICKTVALST
